These are yes or no findings as the source states them, for the method shown. In cells and extracts the contact can be indirect. Some entries that bind do so weakly or less than the wild type. Where a sequence is shown, tags or fusion partners need not be part of it.

Chains of the proteins cited; added tags and fusions are not shown.
UniProt P63044: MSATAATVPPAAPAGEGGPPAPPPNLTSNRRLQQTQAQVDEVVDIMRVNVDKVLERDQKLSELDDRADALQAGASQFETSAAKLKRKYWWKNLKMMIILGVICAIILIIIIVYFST

These results are taken from paper PMC9938216.

The assay concerns the target T1, FLAG-Prrt2 (UniProt E9PUL5).
T1 sequence: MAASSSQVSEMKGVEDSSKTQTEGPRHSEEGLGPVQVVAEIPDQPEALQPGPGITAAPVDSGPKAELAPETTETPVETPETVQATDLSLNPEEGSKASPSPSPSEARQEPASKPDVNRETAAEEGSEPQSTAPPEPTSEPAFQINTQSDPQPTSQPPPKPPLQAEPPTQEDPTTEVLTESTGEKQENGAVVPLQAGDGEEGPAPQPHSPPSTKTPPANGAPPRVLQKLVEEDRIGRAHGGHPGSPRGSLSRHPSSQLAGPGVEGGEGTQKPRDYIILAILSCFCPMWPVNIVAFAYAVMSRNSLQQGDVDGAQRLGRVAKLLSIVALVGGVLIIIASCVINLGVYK
The assay is described as follows: co-IP; HEK293T cells transfected with FLAG-Prrt2 and T7-VAMP2 or myc-STX1A; IP with anti-FLAG antibody or mouse IgG in 50 mM Tris pH 7.4, 150 mM NaCl, 1% Triton X-100; western blotting. A general note: In western blotting, separated proteins are transferred to a membrane and probed.

As for T7-VAMP2 (from UniProt P63044 1-116), the binding result is reported as “binds”.
